Experiment [1] concerns the target 5-hydroxytryptamine receptor 1B (Rattus norvegicus, UniProt P28564).
Experiment [2] concerns the target 5-hydroxytryptamine 1D receptor (Bos taurus, UniProt Q8MI13).
Experiment [3] addresses T1, 5-hydroxytryptamine receptor 3A (Rattus norvegicus, UniProt P35563).
T1 sequence (P35563 whole entry): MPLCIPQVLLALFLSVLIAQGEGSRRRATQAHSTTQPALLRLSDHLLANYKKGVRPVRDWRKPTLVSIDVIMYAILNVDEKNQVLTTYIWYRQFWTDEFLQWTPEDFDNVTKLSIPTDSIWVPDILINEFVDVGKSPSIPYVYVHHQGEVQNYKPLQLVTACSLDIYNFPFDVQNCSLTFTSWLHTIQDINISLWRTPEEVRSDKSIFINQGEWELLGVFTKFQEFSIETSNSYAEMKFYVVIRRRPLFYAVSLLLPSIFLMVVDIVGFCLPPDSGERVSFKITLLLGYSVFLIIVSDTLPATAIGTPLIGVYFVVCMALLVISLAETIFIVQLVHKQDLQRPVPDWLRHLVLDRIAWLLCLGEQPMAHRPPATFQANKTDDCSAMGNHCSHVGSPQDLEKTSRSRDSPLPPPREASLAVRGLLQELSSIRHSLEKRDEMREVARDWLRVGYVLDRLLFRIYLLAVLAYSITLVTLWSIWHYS

Protein sequences, listed by entry. Tags and fused reporters are not part of them.
UniProt P28564, whole entry: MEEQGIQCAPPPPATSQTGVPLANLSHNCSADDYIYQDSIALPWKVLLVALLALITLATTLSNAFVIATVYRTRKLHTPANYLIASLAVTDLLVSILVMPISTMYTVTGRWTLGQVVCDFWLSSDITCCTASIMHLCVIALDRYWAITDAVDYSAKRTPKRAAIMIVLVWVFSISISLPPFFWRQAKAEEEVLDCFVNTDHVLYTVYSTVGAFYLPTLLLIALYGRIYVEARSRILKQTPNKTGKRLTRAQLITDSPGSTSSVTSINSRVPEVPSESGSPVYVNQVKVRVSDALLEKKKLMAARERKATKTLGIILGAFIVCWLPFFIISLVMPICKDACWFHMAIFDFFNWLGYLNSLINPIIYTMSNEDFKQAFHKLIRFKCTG
UniProt Q8MI13, whole entry: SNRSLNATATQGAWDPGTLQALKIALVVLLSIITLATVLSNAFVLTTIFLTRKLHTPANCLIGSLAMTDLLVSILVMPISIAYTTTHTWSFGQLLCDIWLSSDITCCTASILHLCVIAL

This passage reports Ki results from BindingDB's records for doi:10.1016/0893-133X(94)00129-N (Eli Lilly, 1996).

For `OCCOCCN1CCN(C2=Nc3ccccc3Sc3ccccc32)CC1` [2-[2-(4-dibenzo[b,f][1,4]thiazepin-11-ylpiperazin-1-yl)ethoxy]ethanol], the Ki (as a rule, a measure of affinity in units of concentration, obtained from inhibition or displacement) is 5.4 µM in experiment [1], 6.22 µM in experiment [2] and 0.17 µM in experiment [3].
